Measured values as given in publication PMC5425128, “Functional human GRIN2B promoter polymorphism and variation of mental processing speed in older adults”.
The exact form of at least one protein or probe is not confirmed. Weaker means in comparison with the reference protein, sequence or condition of that experiment. Where a protein sequence is shown, tags need not be part of it.

Target: T1, Elk-1 (human) (UniProt P19419)
T1 sequence (looked up, limits assumed): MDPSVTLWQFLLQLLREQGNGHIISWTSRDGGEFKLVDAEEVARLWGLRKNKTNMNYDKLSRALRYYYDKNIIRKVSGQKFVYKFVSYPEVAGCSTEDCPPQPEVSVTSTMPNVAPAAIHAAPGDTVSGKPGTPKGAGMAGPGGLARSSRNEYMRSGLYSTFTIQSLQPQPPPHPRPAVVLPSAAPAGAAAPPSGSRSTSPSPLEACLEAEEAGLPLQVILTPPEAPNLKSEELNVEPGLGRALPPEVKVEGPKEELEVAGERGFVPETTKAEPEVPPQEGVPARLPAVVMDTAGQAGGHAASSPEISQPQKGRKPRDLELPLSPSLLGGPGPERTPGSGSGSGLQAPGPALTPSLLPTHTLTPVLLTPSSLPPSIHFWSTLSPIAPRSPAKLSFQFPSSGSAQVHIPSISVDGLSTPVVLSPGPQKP
Test: EMSA
Settings: 1 ug Elk-1, 10 mM MgCl2, no poly(dI-dC), 50 mM HEPES pH 7.5, 10 mM MgCl2, 5% glycerol, 1 mM DTT, 0.3% BSA, 1 mM EDTA, 1 h on ice, 6% gel (HEPES buffer pH 6.3), commercial protein

“CATCTCCGGGGGACACGCGAA (double strand) [GRIN2B G allele (rs3764030 G)]”: binds more weakly.
